Experimental data published in the supplement of paper PMC10849652.
The other results are listed elsewhere or left out.

Chains of the proteins cited; added tags and fusions are not shown. Lines headed by an entry give the natural chain unless they say otherwise; changes in a name come on top.
UniProt O75822, whole entry, looked up: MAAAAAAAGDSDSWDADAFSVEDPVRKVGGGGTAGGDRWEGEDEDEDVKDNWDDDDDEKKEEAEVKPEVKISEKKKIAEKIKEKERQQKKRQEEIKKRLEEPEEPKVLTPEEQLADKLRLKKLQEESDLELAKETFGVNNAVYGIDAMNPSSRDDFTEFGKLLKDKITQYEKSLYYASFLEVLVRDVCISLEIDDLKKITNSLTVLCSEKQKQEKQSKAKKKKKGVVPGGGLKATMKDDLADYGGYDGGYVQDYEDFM
UniProt P29692: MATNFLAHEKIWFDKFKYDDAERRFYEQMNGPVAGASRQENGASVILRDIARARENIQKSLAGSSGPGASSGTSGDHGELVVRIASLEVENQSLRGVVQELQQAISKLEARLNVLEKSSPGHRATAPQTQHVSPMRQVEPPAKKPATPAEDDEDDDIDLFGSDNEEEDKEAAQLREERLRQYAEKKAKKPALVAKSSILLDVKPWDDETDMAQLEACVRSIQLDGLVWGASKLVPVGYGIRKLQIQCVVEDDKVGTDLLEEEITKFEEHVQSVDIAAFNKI
UniProt O00418: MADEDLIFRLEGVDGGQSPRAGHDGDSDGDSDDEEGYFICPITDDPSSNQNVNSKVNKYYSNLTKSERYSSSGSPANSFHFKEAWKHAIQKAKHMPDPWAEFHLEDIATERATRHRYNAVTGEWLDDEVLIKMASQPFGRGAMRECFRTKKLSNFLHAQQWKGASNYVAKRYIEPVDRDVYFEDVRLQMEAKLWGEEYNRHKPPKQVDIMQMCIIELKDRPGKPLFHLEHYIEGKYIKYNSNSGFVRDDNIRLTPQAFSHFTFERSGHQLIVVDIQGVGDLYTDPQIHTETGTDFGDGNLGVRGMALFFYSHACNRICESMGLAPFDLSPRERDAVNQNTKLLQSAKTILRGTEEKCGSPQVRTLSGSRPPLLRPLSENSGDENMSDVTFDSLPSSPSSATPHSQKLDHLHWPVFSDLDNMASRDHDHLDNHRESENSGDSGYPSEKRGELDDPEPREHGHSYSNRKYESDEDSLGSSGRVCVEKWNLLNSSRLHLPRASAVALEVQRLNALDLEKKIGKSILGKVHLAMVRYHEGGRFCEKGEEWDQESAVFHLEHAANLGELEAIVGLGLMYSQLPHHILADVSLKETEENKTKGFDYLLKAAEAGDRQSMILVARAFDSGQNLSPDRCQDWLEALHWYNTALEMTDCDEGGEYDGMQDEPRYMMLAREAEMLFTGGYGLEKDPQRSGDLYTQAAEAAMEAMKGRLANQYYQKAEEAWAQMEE
UniProt Q96L91, whole entry, looked up: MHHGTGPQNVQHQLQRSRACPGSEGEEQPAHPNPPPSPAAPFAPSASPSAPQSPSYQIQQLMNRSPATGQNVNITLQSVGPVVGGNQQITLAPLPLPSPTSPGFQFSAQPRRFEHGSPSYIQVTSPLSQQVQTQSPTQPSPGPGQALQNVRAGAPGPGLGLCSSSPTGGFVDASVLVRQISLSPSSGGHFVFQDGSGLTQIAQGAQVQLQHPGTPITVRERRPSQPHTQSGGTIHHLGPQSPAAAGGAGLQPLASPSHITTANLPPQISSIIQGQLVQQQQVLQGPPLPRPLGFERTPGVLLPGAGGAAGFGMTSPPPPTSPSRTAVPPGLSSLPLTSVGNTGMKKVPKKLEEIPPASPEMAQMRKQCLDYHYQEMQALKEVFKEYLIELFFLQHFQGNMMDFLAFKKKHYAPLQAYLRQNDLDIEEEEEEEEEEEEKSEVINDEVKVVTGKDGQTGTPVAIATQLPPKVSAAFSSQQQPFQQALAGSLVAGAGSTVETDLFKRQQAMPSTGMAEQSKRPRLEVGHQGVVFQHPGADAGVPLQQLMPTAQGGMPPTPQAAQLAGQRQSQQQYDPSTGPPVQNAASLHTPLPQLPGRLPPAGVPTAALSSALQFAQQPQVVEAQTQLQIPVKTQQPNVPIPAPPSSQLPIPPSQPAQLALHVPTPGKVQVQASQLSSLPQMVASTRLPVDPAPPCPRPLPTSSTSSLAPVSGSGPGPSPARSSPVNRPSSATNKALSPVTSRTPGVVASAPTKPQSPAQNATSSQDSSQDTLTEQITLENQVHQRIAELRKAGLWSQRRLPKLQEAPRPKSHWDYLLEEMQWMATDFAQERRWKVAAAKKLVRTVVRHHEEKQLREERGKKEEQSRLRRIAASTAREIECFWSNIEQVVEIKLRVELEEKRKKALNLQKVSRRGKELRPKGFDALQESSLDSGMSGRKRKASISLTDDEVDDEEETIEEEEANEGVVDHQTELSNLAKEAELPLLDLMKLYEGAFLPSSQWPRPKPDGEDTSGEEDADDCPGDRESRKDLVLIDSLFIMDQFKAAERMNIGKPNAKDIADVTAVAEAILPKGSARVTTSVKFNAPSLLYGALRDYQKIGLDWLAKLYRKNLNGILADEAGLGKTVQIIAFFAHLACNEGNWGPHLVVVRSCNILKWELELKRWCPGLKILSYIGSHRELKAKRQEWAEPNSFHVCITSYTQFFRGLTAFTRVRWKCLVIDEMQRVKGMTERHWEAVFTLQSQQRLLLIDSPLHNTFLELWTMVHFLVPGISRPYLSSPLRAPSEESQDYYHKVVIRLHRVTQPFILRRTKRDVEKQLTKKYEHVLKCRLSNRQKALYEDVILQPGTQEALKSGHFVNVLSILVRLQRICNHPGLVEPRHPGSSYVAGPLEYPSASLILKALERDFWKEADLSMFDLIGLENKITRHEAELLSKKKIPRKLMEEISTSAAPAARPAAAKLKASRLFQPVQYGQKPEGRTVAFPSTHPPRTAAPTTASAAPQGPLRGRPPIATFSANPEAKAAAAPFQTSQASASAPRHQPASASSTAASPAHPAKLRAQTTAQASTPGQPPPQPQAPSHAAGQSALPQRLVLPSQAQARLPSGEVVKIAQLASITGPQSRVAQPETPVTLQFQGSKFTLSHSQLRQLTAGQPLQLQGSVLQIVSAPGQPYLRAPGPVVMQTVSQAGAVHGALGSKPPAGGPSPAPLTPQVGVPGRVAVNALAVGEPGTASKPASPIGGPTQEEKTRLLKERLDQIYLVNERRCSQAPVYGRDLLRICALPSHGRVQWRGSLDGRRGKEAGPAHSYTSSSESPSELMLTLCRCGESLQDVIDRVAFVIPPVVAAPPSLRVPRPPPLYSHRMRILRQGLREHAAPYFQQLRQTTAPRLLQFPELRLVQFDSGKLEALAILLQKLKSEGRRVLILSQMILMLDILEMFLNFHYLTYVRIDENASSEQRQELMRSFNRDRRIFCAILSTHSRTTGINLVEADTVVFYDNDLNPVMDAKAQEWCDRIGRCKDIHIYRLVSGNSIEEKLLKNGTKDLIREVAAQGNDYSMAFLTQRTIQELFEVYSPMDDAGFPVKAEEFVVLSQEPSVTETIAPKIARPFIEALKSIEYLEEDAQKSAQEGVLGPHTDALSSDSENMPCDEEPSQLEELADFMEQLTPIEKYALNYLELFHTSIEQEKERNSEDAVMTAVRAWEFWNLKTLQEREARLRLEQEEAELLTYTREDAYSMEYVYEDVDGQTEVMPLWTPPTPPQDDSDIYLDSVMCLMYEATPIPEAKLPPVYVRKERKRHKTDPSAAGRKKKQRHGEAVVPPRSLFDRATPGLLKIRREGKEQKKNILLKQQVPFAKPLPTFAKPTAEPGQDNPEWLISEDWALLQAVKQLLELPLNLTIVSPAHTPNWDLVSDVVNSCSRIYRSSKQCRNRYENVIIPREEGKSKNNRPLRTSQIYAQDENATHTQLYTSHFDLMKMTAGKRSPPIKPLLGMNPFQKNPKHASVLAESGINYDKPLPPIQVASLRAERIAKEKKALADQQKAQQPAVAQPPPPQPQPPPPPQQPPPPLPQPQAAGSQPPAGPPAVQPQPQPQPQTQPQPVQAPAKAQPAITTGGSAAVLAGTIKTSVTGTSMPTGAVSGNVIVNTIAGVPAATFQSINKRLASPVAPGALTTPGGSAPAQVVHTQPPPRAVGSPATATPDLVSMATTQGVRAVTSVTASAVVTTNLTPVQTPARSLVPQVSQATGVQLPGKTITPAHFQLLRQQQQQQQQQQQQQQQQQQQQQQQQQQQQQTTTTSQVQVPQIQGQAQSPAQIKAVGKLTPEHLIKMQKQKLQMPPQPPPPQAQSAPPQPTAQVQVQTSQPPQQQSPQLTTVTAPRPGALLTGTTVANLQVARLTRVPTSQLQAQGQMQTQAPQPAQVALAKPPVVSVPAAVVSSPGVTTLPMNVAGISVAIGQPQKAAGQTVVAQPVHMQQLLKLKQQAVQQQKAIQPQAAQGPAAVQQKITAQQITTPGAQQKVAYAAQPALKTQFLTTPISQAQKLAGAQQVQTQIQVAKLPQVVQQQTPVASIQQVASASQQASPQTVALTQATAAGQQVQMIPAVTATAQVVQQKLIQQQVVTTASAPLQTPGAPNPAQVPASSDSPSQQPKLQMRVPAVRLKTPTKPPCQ
UniProt Q6ZTU2, whole entry, looked up: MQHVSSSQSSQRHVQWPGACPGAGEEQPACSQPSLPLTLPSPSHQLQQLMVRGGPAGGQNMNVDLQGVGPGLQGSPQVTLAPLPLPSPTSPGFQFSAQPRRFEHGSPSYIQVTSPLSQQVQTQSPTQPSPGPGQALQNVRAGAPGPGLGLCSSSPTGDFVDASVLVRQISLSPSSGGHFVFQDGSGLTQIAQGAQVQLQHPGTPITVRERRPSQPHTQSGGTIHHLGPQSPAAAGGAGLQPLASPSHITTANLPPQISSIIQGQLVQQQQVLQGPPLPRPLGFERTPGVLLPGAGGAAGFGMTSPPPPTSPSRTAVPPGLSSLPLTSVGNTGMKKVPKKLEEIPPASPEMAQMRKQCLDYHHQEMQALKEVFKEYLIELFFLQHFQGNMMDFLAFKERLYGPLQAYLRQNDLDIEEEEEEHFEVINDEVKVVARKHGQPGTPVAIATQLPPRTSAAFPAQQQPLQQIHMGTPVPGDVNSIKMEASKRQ
UniProt P18146, whole entry, looked up: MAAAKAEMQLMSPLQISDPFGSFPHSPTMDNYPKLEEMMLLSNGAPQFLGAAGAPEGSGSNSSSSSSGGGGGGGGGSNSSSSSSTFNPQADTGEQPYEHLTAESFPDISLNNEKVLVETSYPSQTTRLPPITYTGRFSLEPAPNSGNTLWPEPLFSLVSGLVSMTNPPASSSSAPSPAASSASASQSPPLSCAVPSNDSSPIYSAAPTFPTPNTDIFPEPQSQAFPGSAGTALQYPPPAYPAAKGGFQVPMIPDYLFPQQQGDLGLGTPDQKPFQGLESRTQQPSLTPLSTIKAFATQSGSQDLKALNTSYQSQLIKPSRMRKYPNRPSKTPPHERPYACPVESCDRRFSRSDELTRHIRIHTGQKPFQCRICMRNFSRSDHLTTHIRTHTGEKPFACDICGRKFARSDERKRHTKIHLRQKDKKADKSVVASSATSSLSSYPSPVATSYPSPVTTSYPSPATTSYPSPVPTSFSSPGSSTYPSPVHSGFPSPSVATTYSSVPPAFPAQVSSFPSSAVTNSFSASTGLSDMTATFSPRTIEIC
UniProt Q9NZJ5: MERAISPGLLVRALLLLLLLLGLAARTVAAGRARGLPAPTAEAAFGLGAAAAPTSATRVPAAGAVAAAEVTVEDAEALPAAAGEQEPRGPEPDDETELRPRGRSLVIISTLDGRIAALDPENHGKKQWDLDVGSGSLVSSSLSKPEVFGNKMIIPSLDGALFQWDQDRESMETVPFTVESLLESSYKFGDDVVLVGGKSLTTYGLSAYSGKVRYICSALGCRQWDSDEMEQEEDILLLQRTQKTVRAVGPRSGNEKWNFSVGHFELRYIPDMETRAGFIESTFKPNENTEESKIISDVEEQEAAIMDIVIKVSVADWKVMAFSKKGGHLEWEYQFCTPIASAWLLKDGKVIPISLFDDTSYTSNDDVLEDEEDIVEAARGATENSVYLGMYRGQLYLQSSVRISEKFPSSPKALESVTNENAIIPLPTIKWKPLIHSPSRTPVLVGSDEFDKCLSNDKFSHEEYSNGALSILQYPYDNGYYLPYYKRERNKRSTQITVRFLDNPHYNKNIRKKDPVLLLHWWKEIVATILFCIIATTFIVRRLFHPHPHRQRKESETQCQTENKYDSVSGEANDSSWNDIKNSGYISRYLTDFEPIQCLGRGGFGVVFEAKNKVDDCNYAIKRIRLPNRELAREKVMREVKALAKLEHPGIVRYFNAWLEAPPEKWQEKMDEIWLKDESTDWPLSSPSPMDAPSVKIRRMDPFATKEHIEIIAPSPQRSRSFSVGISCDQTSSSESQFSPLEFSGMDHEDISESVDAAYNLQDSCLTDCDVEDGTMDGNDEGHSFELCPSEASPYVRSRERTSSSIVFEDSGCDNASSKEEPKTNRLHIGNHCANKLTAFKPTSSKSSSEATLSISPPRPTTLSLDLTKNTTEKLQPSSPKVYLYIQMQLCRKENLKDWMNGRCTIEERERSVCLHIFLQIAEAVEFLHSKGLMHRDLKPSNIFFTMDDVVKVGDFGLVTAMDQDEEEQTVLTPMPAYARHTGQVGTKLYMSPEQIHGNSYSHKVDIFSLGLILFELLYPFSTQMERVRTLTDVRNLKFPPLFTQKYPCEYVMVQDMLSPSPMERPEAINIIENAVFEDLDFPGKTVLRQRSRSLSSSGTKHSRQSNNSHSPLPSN

Tests used:
Experiment in all cases: log2 fold change, soluble protein after heating vs DMSO (PISA); higher = thermal stabilisation; K562 cells, 10 uM, 30 min; active = over 0.2 and 3.5 SD of the protein, either way, in both replicates (recomputed)
saracatinib = compound: CN1CCN(CCOc2cc(OC3CCOCC3)c3c(Nc4c(Cl)ccc5c4OCO5)ncnc3c2)CC1 [saracatinib]
In short: (§1)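 Thermal stability values are relative to control samples and come from duplicates. They are expressed as log2 fold changes. For measurement, K562 cells (2×10^6 cells/mL) received 10 μM compound for 30 min, and aliquots were heated for 3 min over 48°C-58°C, pooled, and extracted at 4°C in PBS with 0.5% NP-40. Soluble protein, the supernatant after 21,000xg for 90 min, was quantified by TMTpro 16plex LC-MS/MS with equalised channel sums.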

sotrastaurin = compound: CN1CCN(c2nc(C3=C(c4c[nH]c5ccccc45)C(=O)NC3=O)c3ccccc3n2)CC1 [sotrastaurin]
In short: as §1

[1] = compound: CNc1nc(-c2ccc3c(N)n[nH]c3c2)cc(N2C[C@@H](C(=O)NC3CCCCC3)CC[C@H]2C)n1
In short: as §1

Tubastatin A = compound: CN1CCc2c(c3ccccc3n2Cc2ccc(C(=O)NO)cc2)C1 [Tubastatin A]
In short: as §1

[2] = compound: CNC(=O)C1=CC=CC=C1NC2=NC(=NC=C2Cl)NC3=C(C=C(C=C3)N4CCOCC4)OC
In short: as §1

defactinib = compound: CNC(=O)c1ccc(Nc2ncc(C(F)(F)F)c(NCc3nccnc3N(C)S(C)(=O)=O)n2)cc1 [defactinib]
In short: as §1

[3] = compound: COC(=O)[C@H](CCSC)NC(=O)C1=C(C=C(C=C1)NC[C@H](CS)N)C2=CC=CC=C2
In short: as §1

rucaparib = compound: CNCc1ccc(-c2[nH]c3cc(F)cc4c3c2CCNC4=O)cc1 [rucaparib]
In short: as §1

encorafenib = compound: COC(=O)N[C@@H](C)CNc1nccc(-c2cn(C(C)C)nc2-c2cc(Cl)cc(NS(C)(=O)=O)c2F)n1 [encorafenib]
In short: as §1

alvocidib = compound: CN1CC[C@H](c2c(O)cc(O)c3c(=O)cc(-c4ccccc4Cl)oc23)[C@H](O)C1 [alvocidib]
In short: as §1

Measured: log2 fold change

EEF1AKMT4-ECE2 (UniProt P0DPD8)
inactive: saracatinib -0.25 | sotrastaurin -0.226 | [1] -0.179

EIF3J isoform 2 (UniProt O75822)
inactive: saracatinib 0.035 | sotrastaurin 0.075 | Tubastatin A -0.082 | [2] -0.021 | defactinib -0.085 | [1] -0.04 | [3] -0.008

ELAC1 (UniProt Q9H777)
inactive: saracatinib 0.094 | sotrastaurin 0.006 | [2] -0.056 | defactinib -0.031 | rucaparib 0.153 | [1] 0.049 | encorafenib 0.063 | [3] 0.022

EEF1B2 (UniProt P24534)
inactive: saracatinib -0.091 | sotrastaurin -0.061 | Tubastatin A 0.017 | [2] 0.06 | defactinib -0.064 | rucaparib 0.041 | [1] -0.013 | encorafenib 0.07 | [3] -0.046

EIF4G1 isoform 8 (UniProt Q04637)
inactive: saracatinib -0.08 | sotrastaurin -0.36 | Tubastatin A 0.034 | [2] -0.067 | defactinib 0.008 | rucaparib 0.197 | [1] -0.017 | encorafenib 0.092 | [3] -0.05

EFL1 (UniProt Q7Z2Z2)
inactive: saracatinib -0.036 | sotrastaurin -0.004 | Tubastatin A -0.007 | [2] -0.014 | defactinib -0.022 | rucaparib 0.015 | [1] 0.019 | encorafenib 0.033 | [3] -0.014

EIF2S3 (UniProt P41091)
inactive: saracatinib -0.016 | sotrastaurin 0 | Tubastatin A -0.006 | [2] -0.02 | defactinib 0.114 | rucaparib 0.124 | [1] 0.033 | encorafenib 0.04 | [3] -0.002

EIF4E isoform 2 (UniProt P06730)
inactive: saracatinib 0.04 | sotrastaurin 0.189 | Tubastatin A -0.085 | [2] 0 | defactinib -0.012 | rucaparib 0.008 | [1] 0.133 | encorafenib -0.023 | [3] -0.072

ELOVL1 (UniProt Q9BW60)
inactive: saracatinib 0.015 | sotrastaurin 0.037 | Tubastatin A -0.015 | [2] -0.223 | defactinib -0.029 | rucaparib 0.05 | [1] 0.017 | encorafenib -0.011 | [3] 0

EHD2 (UniProt Q9NZN4)
inactive: saracatinib 0.016 | sotrastaurin 0.017 | Tubastatin A 0.048 | [2] -0.031 | defactinib -0.12 | rucaparib -0.019 | [1] -0.053 | encorafenib 0.046 | [3] -0.061

ENTPD7 (UniProt Q9NQZ7)
inactive: saracatinib 0.155 | sotrastaurin 0.17 | Tubastatin A 0.064 | [2] -0.162 | rucaparib -0.078 | [1] 0.136 | encorafenib -0.26

2 entries picked at random from those above, as already listed:
EHD2 (UniProt Q9NZN4)
inactive: saracatinib 0.016 | sotrastaurin 0.017 | Tubastatin A 0.048 | [2] -0.031 | defactinib -0.12 | rucaparib -0.019 | [1] -0.053 | encorafenib 0.046 | [3] -0.061

EIF2S3 (UniProt P41091)
inactive: saracatinib -0.016 | sotrastaurin 0 | Tubastatin A -0.006 | [2] -0.02 | defactinib 0.114 | rucaparib 0.124 | [1] 0.033 | encorafenib 0.04 | [3] -0.002

More records.

EEF1D isoform 2 (UniProt P29692)
inactive: saracatinib -0.04 | sotrastaurin -0.03 | Tubastatin A 0.001 | [2] 0.107 | defactinib -0.011 | rucaparib 0.053 | [1] 0.017 | encorafenib 0.078 | [3] -0.013

EEF2K (UniProt O00418)
inactive: [2] 0.064 | defactinib -0.021 | rucaparib 0.1 | encorafenib -0.036 | [3] -0.266

EP400 (UniProt Q96L91)
inactive: sotrastaurin -0.087 | alvocidib 0.179

EEF1D isoform 3 (UniProt P29692)
inactive: Tubastatin A 0.147 | [2] -0.03

EIF5A2 (UniProt Q9GZV4)
inactive: saracatinib -0.153 | alvocidib -0.018 | [1] -0.07

EP400P1 isoform 6 (UniProt Q6ZTU2)
inactive: saracatinib -0.018 | Tubastatin A -0.013 | [1] 0.125

EIF4B (UniProt F8VP89)
inactive: alvocidib -0.019 | rucaparib -0.059 | encorafenib 0.036

ENO3 (UniProt K7EKN2)
inactive: saracatinib 0.116 | [1] 0.279

EID1 (UniProt Q9Y6B2)
inactive: sotrastaurin -0.049 | Tubastatin A 0.599 | [2] -0.111

EGR1 (UniProt P18146)
inactive: sotrastaurin -0.481 | Tubastatin A 0.129 | [2] -0.147 | [3] 0.041
active: defactinib -0.841

EIF2AK3 (UniProt Q9NZJ5)
inactive: saracatinib -0.019 | Tubastatin A 0.039 | [2] 0.183 | rucaparib -0.125 | [1] 0.082 | encorafenib -0.216

ELOA (UniProt Q14241)
inactive: rucaparib -0.057 | encorafenib -0.153

ENKD1 (UniProt Q9H0I2)
inactive: Tubastatin A 0.175 | [2] -0.231 | defactinib 0.108 | rucaparib 0.114 | encorafenib 0.03 | [3] -0.143

ENTPD4 (UniProt Q9Y227)
inactive: sotrastaurin 0.033 | Tubastatin A -0.117 | [2] 0.116 | rucaparib 0.115 | encorafenib 0

EML5 isoform 5 (UniProt Q05BV3)
inactive: saracatinib -0.331 | alvocidib 0.123 | Tubastatin A -0.035 | [2] 0.011 | defactinib -0.055 | [1] -0.007 | [3] 0

ELMO2 (UniProt Q96JJ3)
inactive: saracatinib -0.129 | [1] -0.018

EPB41 isoform 4 (UniProt P11171)
inactive: Tubastatin A 0.099

ELAVL4 (UniProt P26378)
inactive: alvocidib 0.13 | Tubastatin A 0.049 | rucaparib 0.555 | encorafenib 0.172

ENAH (UniProt Q8N8S7)
inactive: defactinib 0.122 | [3] 0.052

EFCAB2 (UniProt Q5VUJ9)
inactive: [2] -0.026 | rucaparib 0.027 | encorafenib -0.122

ENO2 (UniProt U3KQQ1)
inactive: sotrastaurin 0.035

EFR3A (UniProt Q14156)
inactive: sotrastaurin -0.285 | defactinib 0.012 | [3] 0

EEF1AKMT2 (UniProt Q5JPI9)
inactive: sotrastaurin 0.194 | [2] -0.021 | rucaparib 0.009 | encorafenib 0.08

EIF1B (UniProt O60739)
inactive: sotrastaurin 0.025 | [2] 0.161 | rucaparib -0.072 | encorafenib 0.172

EIF4E3 (UniProt Q8N5X7)
inactive: [2] -0.003 | rucaparib -0.198 | encorafenib -0.109

EGFL7 (UniProt Q9UHF1)
inactive: sotrastaurin 0.042

ELOVL7 (UniProt A1L3X0)
inactive: saracatinib -0.018 | Tubastatin A -0.002 | [2] -0.112 | [1] -0.093

EHBP1 (UniProt Q8NDI1)
inactive: Tubastatin A 0.045 | rucaparib 0.135 | encorafenib -0.058

EIF3I (UniProt Q5TFK1)
inactive: saracatinib -0.023 | alvocidib -0.13 | Tubastatin A 0.07 | [1] -0.176

EPB41, A0A2R8Y6D0
inactive: sotrastaurin 0.159 | alvocidib -0.063 | Tubastatin A 0.036 | [2] 0.14 | defactinib 0.053 | rucaparib 0.227 | encorafenib 0.004 | [3] -0.083

ENTR1 (UniProt Q96C92)
inactive: saracatinib -0.131 | [2] -0.03 | defactinib 0.022 | [1] -0.039
active: [3] -0.486

EPB41, A0A2R8Y783
inactive: saracatinib 0.152 | [1] 0.008

EIF4G1 (UniProt Q04637)
inactive: saracatinib -0.112 | Tubastatin A 0.006 | defactinib -0.08 | [1] -0.017 | [3] 0.014

EIF4H isoform 2 (UniProt Q15056)
inactive: [2] 0.081

ELP5 isoform 2 (UniProt Q8TE02)
inactive: [2] -0.265
